PMC3355131
No constants are given. Whether binding was seen depends on the method and setting. Binding seen in cells or lysates may run through a third protein. Some entries that bind do so weakly or less than the wild type.

Protein sequences, listed by entry. Tags and fused reporters are not part of them.
UniProt A0A8I3P974: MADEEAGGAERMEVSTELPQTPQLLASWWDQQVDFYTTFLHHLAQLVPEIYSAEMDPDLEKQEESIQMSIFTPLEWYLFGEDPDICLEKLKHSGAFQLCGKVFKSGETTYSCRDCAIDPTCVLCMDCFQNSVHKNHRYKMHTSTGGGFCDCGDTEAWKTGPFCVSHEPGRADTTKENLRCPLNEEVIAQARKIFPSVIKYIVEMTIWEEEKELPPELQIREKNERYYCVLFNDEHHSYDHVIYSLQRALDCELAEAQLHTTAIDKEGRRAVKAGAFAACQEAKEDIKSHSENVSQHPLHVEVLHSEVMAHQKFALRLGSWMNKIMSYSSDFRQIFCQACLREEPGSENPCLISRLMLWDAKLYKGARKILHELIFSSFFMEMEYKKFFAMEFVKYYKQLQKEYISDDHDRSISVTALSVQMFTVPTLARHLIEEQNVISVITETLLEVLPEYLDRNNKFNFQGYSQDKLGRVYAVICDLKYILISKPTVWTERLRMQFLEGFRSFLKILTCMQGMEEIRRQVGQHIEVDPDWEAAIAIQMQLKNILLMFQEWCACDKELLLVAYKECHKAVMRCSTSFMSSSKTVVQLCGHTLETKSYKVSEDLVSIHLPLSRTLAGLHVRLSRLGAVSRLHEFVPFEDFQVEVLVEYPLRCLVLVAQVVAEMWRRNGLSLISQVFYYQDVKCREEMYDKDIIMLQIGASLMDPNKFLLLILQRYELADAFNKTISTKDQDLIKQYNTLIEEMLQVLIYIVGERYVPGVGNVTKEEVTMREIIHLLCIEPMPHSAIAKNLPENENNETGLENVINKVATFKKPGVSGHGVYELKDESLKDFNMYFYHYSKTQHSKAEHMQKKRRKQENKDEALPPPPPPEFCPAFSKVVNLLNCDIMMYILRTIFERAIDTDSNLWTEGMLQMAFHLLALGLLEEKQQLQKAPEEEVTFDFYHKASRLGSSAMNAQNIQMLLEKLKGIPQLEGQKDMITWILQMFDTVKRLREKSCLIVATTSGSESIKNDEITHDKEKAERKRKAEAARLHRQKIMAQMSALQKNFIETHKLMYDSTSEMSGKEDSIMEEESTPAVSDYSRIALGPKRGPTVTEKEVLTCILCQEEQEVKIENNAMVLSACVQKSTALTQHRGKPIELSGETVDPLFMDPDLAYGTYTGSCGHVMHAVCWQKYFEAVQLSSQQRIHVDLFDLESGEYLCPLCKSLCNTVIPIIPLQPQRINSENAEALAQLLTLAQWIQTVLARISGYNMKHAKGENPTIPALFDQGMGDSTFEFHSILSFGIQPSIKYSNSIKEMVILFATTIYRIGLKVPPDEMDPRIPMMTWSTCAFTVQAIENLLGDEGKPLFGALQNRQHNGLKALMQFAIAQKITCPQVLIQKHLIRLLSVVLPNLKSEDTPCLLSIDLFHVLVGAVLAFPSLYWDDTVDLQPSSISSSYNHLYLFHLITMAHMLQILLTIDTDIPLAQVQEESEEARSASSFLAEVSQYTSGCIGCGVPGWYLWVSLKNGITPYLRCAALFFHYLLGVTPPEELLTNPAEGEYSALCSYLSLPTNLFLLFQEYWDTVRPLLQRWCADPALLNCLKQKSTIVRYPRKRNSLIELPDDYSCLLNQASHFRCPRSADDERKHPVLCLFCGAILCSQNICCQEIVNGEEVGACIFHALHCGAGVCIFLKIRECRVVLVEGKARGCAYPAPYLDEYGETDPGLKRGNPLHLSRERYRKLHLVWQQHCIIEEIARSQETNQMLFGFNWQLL

Molecular target: Phe-peptide (12-mer N-end rule X-peptide, X = Phe) (Sindbis virus)
Assay: pull-down; C-terminally biotinylated X-peptide on streptavidin-sepharose beads (1-1.5 umol peptide per 1 ml beads) mixed with extracts of rat or dog testes; low (75-150 mM) salt; only the target purified

Substance: UBR1 (endogenous, from dog testes) (from UniProt A0A8I3P974 1-1753) (enzyme)
- binding: binds
